Measurements reported in paper PMC10352565.

By UniProt entry, the sequences of proteins in these tests, tags left out.
UniProt Q5SU73: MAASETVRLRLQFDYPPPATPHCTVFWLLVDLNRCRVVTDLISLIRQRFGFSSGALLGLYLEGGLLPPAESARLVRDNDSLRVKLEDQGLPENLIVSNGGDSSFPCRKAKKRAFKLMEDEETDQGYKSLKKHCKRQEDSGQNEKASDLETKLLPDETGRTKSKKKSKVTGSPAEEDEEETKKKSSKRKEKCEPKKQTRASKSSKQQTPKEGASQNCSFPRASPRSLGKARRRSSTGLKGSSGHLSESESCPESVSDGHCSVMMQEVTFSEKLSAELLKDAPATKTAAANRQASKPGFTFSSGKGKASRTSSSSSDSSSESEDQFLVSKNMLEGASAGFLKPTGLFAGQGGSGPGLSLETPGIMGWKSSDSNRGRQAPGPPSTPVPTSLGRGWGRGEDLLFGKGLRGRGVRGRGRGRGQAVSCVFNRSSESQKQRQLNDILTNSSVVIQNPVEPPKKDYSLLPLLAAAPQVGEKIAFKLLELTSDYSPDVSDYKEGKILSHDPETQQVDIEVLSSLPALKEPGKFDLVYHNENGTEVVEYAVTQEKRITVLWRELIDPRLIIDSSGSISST

Molecular target: T1, HSF4 (mouse (endogenous in NIH-3T3)) (UniProt Q9R0L1)
T1 sequence: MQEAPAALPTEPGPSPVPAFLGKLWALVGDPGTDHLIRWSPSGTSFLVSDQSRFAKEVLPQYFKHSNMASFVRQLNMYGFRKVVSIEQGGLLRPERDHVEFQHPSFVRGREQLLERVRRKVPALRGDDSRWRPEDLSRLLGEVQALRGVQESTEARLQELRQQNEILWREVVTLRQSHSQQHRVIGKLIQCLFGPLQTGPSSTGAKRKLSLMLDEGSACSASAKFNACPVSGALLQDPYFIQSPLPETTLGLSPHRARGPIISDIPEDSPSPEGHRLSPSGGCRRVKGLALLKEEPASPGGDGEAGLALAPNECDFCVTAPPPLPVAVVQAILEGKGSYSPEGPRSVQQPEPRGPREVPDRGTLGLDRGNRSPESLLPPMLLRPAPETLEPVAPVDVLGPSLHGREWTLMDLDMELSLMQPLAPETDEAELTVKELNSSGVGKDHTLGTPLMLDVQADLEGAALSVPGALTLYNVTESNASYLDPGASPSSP
Test: affinity purification with mass spectrometry; pull-down with HSF4 from UV-treated NIH-3T3 cells; antibody or cognate IgG coupled to A/G beads, incubated with proteins overnight at 4°C; proteins pulled down identified by mass spectrometry

- binding: binds
Substance: COIL (coilin) (from UniProt Q5SU73 1-570)

Results are given in words; binding and its absence hold for the method and conditions named. In cells and extracts the contact can be indirect. These calls come from enrichment with a bait or labelling near it, and not all partners need be listed.
